PubChem BioAssay AID504764 | Drosophila RNAi Screening Center – 2011

- Test: 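Genes whose knock-down alters Notch-dependent transcription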 (primary screen)
- System: Drosophila Kc167 cells
- Reagent: long dsRNA against Drosophila genes
- Time to read-out: about 5 days (4 days dsRNA, then 24 h after transfection)
- Conditions: transfection of constitutively active membrane-tethered Notch lacking the extracellular domain, read 24 h later
- Measurement: 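Firefly luciferase from an E(spl)m3 reporter with active Notch, plus control-promoter and uninduced reporter wells for normalisation; unnormalised counts, duplicate wells a and b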
- Direction: induced reporter light, run 1, well a and induced reporter light, run 1, well b: higher = more light from the Notch target reporter with active Notch; control promoter light, run 1, well a and control promoter light, run 1, well b: higher = more light from the viral control promoter (cell number, transfection, viability); uninduced reporter light, run 1, well a: higher = more light from the Notch target reporter without active Notch
- Call rule: 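Hit if the duplicate-averaged log2 ratio of induced to control-promoter light gives a plate-wise z beyond ±2, or induced to uninduced beyond ±1.8; weak-control or discordant-duplicate wells dropped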
- Meaning of the calls: active = modifier hit (raised or lowered Notch signal); inactive = not a hit
The screen tested about 22,000 reagents; below is an unselected part of those with a known target gene and a result. In the full data, 403 (1.9%) got an active call. 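Unnormalised raw counts per well; ratio z-scores behind the hit calls and whether each hit raises or lowers signal are not deposited.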 Entries without a mark were called inactive. The numbers tell different reagents against one gene apart. The record does not give: the amount of reagent.

| gene knocked down | reagent | induced reporter light, run 1, well a | induced reporter light, run 1, well b | control promoter light, run 1, well a | control promoter light, run 1, well b | uninduced reporter light, run 1, well a |
| --- | --- | --- | --- | --- | --- | --- |
| CG15073 | 1 | 50975 | 37850 | 35620 | 38590 | 4300 |
| CG14110 | 1 | 2.26e5 | 1.79e5 | 2.10e5 | 1.84e5 | 13878 |
| MCPH1 | 1 | 90880 | 78625 | 80250 | 70025 | 7205 |
| MCPH1 | 2 | 92005 | 95355 | 1.13e5 | 1.24e5 | 8995 |
| CG33290 | 1 | 1.66e5 | 1.60e5 | 2.33e5 | 1.89e5 | 13640 |
| Cpr64Ad | 1 | 1.35e5 | 2.05e5 | 2.32e5 | 1.92e5 | 10310 |
| GstD11 | 1 | 76590 | 78090 | 75855 | 61580 | 4545 |
| GckIII | 1 | 1.67e5 | 1.97e5 | 1.73e5 | 1.68e5 | 17360 |
| wek | 1 | 2.09e5 | 2.09e5 | 1.94e5 | 1.92e5 | 15785 |

An excerpt taken from the entries so far, as a working copy:
| gene knocked down | reagent | induced reporter light, run 1, well a | induced reporter light, run 1, well b | control promoter light, run 1, well a | control promoter light, run 1, well b | uninduced reporter light, run 1, well a |
| --- | --- | --- | --- | --- | --- | --- |
| CG33290 | 1 | 1.66e5 | 1.60e5 | 2.33e5 | 1.89e5 | 13640 |
| Cpr64Ad | 1 | 1.35e5 | 2.05e5 | 2.32e5 | 1.92e5 | 10310 |

Further records follow.
| gene knocked down | reagent | induced reporter light, run 1, well a | induced reporter light, run 1, well b | control promoter light, run 1, well a | control promoter light, run 1, well b | uninduced reporter light, run 1, well a |
| --- | --- | --- | --- | --- | --- | --- |
| Or88a | 1 | 2.06e5 | 2.49e5 | 2.03e5 | 1.85e5 | 19005 |
| Fip1 | 1 | 83240 | 76995 | 43890 | 54410 | 6510 |
| sdt | 1 | 47890 | 46655 | 30280 | 25485 | 4925 |
| sdt | 2 | 89460 | 55600 | 92090 | 1.64e5 | 4685 |
| sdt | 3 | 1.21e5 | 1.35e5 | 2.62e5 | 2.29e5 | 10520 |
| sdt | 4 | 1.53e5 | 1.63e5 | 3.06e5 | 2.00e5 | 12355 |
| sdt | 5 | 1.26e5 | 1.39e5 | 2.25e5 | 2.62e5 | 10135 |
| sdt | 6 | 18155 | 15505 | 18520 | 18590 | 4980 |
| sdt | 7 | 4675 | 5032 | 9180 | 10260 | 1965 |
| sdt | 8 | 39615 | 30380 | 43780 | 38600 | 5815 |
| sdt | 9 | 1.64e5 | 1.80e5 | 3.38e5 | 3.13e5 | 12115 |
